Literature values in patent US8073633B2 (The Invention Science Fund I, LLC, priority 2008, dated 2011).

Settings: plasma concentration

SMILES: CN(C)CCOC(c1ccccc1)c1ccccc1 [diphenhydramine]
- plasma levels that correlate with a sedative effect: greater than 50 ng/ml
